Over roughly 1,600 compounds, “Hit score” has its median near 0.13; the highest 2% begin near 0.46. Some of the results follow.

This assay has as its system SARS-CoV-2. Description: Antiviral activity against SARS-CoV-2 (USA-WA1/2020 strain) measured by imaging in HRCE cells at MOI 0.4 after 96 hrs (reported as hit score from 0-1 for on-disease vs off-disease activity: scores >0.6 considered hits). The format is functional, Homo sapiens.
As for `N[C@@H](CC(=O)O)C(=O)O` [ASPARTIC ACID], the Hit score was 0.2438.

Take `CS(=O)(=O)Nc1cc2occ(NC=O)c(=O)c2cc1Oc1ccccc1` [IGURATIMOD]: the Hit score is given as 0.1567. Then `Cc1ncc([N+](=O)[O-])n1C` [DIMETRIDAZOLE], with 0.2713.

`C1N2CN3CN1CN(C2)C3` [METHENAMINE]: the Hit score came out at 0.2305. As to `C=CCN1C[C@H](C(=O)N(CCCN(C)C)C(=O)NCC)C[C@@H]2c3cccc4[nH]cc(c34)C[C@H]21` [CABERGOLINE], the Hit score is given as -0.1061. Then `NNCCc1ccccc1` [PHENELZINE], with 0.04153; and `CC(=O)OCC(=O)[C@@]1(OC(C)=O)[C@@H](C)C[C@H]2[C@@H]3C[C@H](F)C4=CC(=O)C=C[C@]4(C)[C@@]3(F)[C@@H](O)C[C@@]21C` [DIFLORASONE DIACETATE], with 0.08777. Consider `Oc1ccc(Cl)cc1` [PARACHLOROPHENOL], for which the Hit score is on record as 0.02412. `CC(=O)O[C@]1(C(C)=O)CC[C@H]2[C@@H]3C=C(C)C4=CC(=O)CC[C@@H]4[C@H]3CC[C@@]21C` [NOMEGESTROL ACETATE] returned a Hit score of 0.2782. The molecule `Cc1ccnc(NC(=O)C(C)c2cccc(C(=O)c3ccccc3)c2)c1` (stereo unspecified) [PIKETOPROFEN] yielded a Hit score of 0.1264. `CC[C@H]1OC(=O)[C@H](C)[C@@H](O[C@H]2C[C@@](C)(OC)[C@@H](O)[C@H](C)O2)[C@H](C)[C@@H](O[C@@H]2O[C@H](C)C[C@H](N(C)C)[C@H]2O)[C@](C)(O)C[C@@H](C)[C@@H]2N[C@@H](COCCOC)O[C@H]([C@H]2C)[C@]1(C)O` [DIRITHROMYCIN] showed a Hit score of 0.05651.

`CCCc1cc(C(N)=S)ccn1` [PROTIONAMIDE] came in with a Hit score of 0.1497. Turning to `CO[C@H]1/C=C/O[C@@]2(C)Oc3c(C)c(O)c4c(O)c(c(/C=N/N5CCN(C6CCCC6)CC5)c(O)c4c3C2=O)NC(=O)/C(C)=C\C=C\[C@H](C)[C@H](O)[C@@H](C)[C@@H](O)[C@@H](C)[C@H](OC(C)=O)[C@@H]1C` [RIFAPENTINE], the Hit score is reported as 0.1445. In turn, `Cn1c(=O)c2nc[nH]c2n(C)c1=O.O` [THEOPHYLLINE] gave a Hit score of 0.2338. In turn, `CC1=C(C)C(=O)C(CCCCCCCCCC[P+](c2ccccc2)(c2ccccc2)c2ccccc2)=CC1=O` gave a Hit score of 0.06177. The molecule `COC(=O)[C@H]1[C@H]2C[C@@H]3c4[nH]c5cc(OC)ccc5c4CCN3C[C@H]2C[C@@H](OC(=O)c2cc(OC)c(OC)c(OC)c2)[C@@H]1OC` [RESERPINE] showed a Hit score of 0.08143. Next, `CNC1CCCN(c2c(F)cc3c(=O)c(C(=O)O)cn(C4CC4)c3c2OC)C1` (stereo unspecified) [BALOFLOXACIN]: 0.2575; `O=P1(NCCCl)OCCCN1CCCl` (stereo unspecified) [IFOSFAMIDE]: 0.08977. In turn, `CN1CCN(CC/C=C2/c3ccccc3Sc3ccc(S(=O)(=O)N(C)C)cc32)CC1` [THIOTHIXENE] displayed a Hit score of 0.03687.

`CC(C)(CO)[C@@H](O)C(=O)NCCC(=O)NCCSSCCNC(=O)CCNC(=O)[C@H](O)C(C)(C)CO` [PANTETHINE]: the Hit score was found to be 0.0893. For `C=CCN1CC[C@]23c4c5ccc(O)c4O[C@H]2[C@@H](OCCOCCOCCOCCOCCOCCOCCOC)CC[C@@]3(O)[C@H]1C5` [NALOXEGOL], the Hit score is listed as 0.106. Consider `Cc1cn[nH]c1` [FOMEPIZOLE], for which the Hit score is given as 0.2114. As for `NC(=O)CN1CCCC1=O`, the Hit score was found to be 0.2052.

The molecule `CC[N+](C)(C)c1cccc(O)c1` [EDROPHONIUM] returned a Hit score of 0.0571. `N=C1CCCN1Cc1[nH]c(=O)[nH]c(=O)c1Cl` returned a Hit score of 0.09228. Then `CN(C)c1cc(NC(=O)CNC(C)(C)C)c(O)c2c1C[C@H]1C[C@H]3[C@H](N(C)C)C(O)=C(C(N)=O)C(=O)[C@@]3(O)C(O)=C1C2=O` [TIGECYCLINE], with 0.1712. Next, `C[C@@H](NCCCc1cccc(C(F)(F)F)c1)c1cccc2ccccc12`: -0.07555; `CC(=O)Nc1cccc(-n2c(=O)n(C3CC3)c(=O)c3c(Nc4ccc(I)cc4F)n(C)c(=O)c(C)c32)c1` [TRAMETINIB]: -0.4857; `CCCOc1cc(N)ccc1C(=O)OCCN(CC)CC` [PROPOXYCAINE]: 0.0698.

As for `OC(Cn1cncn1)(Cn1cncn1)c1ccc(F)cc1F` [FLUCONAZOLE], the Hit score was 0.1493.

For the molecule `CCOC(=O)Nc1ccc2c(c1)N(C(=O)CCN(CC)CC)c1ccccc1S2` [ETHACIZINE], the Hit score was 0.2302.

`CCN[C@H]1CN(CCCOC)S(=O)(=O)c2sc(S(N)(=O)=O)cc21` [BRINZOLAMIDE] displayed a Hit score of 0.2322. Next, `CC(C)c1c(C(=O)Nc2ccccc2)c(-c2ccccc2)c(-c2ccc(F)cc2)n1CC[C@@H](O)C[C@@H](O)CC(=O)O` [ATORVASTATIN]: 0.08829; `Cc1ncc(C[n+]2csc(CCO)c2C)c(N)n1` [THIAMINE ION]: 0.2886. In turn, `NS(=O)(=O)c1cc(C2(O)NC(=O)c3ccccc32)ccc1Cl` (stereo unspecified) [CHLORTHALIDONE] gave a Hit score of 0.1518. With `O=C(O)CCCCCCCC(=O)O` [AZELAIC ACID], the Hit score is 0.004337.

Turning to `Clc1ccc2c(N3CCN(CCCN4CCN(c5ccnc6cc(Cl)ccc56)CC4)CC3)ccnc2c1.O=P(O)(O)O` [PIPERAQUINE PHOSPHATE], the Hit score came out at 0.02101. In turn, `Cc1ccc(C(=O)c2ccc(CC(=O)O)n2C)cc1` [TOLMETIN] had a Hit score of 0.1977. On to `CC(=O)O[C@H]1C[C@@H]2CC[C@@H]3[C@H](CC[C@@]4(C)[C@H]3C[C@H](N3CC[N+](C)(C)CC3)[C@@H]4OC(C)=O)[C@@]2(C)C[C@@H]1N1CC[N+](C)(C)CC1` [PIPECURONIUM], for which the Hit score is reported as 0.1412. Then `CCCCN(CCCC)CCCOC(=O)c1ccc(N)cc1` [BUTACAINE], with 0.05399. `CC1(C)C(/C=C/C=C/C=C/C=C2\N(CCCCS(=O)(=O)[O-])c3ccc4ccccc4c3C2(C)C)=[N+](CCCCS(=O)(=O)[O-])c2ccc3ccccc3c21.[Na+]` [INDOCYANINE GREEN] registered a Hit score of 0.2338.

These data come from ChEMBL document CHEMBL4303122, “Identification of potential treatments for COVID-19 through artificial intelligence-enabled phenomic analysis of human cells infected with SARS-CoV-2” (2020).
